Results are given in words; binding and its absence hold for the method and conditions named.
Molecular target: α7-nicotinic acetylcholine receptor (human) (UniProt P36544)
Assay: radioligand binding; only the binder purified

Amino acid sequences for entries named in this document (tags omitted). Residues count along the entry.
UniProt P36544, residues 23-502: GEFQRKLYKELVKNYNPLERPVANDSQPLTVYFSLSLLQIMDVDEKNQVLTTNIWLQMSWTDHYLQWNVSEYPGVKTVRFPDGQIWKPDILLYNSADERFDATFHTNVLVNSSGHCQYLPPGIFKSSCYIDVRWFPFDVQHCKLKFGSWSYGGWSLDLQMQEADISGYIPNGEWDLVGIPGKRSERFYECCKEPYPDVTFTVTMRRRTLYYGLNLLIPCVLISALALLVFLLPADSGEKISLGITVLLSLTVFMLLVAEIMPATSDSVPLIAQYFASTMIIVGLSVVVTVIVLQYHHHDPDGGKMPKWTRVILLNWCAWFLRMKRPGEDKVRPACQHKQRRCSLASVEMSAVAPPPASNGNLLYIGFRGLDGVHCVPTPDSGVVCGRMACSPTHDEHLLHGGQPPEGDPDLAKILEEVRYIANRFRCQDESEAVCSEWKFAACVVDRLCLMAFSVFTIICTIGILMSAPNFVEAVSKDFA
UniProt P60615, residues 22-95: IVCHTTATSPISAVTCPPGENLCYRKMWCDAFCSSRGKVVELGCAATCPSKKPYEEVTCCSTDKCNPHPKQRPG

^125I-α-bgtx (from UniProt P60615 22-95) (ligand)
binding: no binding (condition: with 5 μM MLA)
